{"source": "the supplement of paper PMC4604168 (melanoma cell lines)", "note": "The list shows a part of the results. Single values are uncertain, as repeats are few or missing.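 Imaging used 1,536-well plates; nuclei positive for cleaved PARP by antibody were divided by total DNA-stained nuclei to yield the apoptosis fraction. Doses for screening kept most cells viable, and cell lines differ markedly in resting and induced cleaved-PARP levels.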", "data": [{"test_system": "CBRC014 (line from a melanoma biopsy)", "experiment": "cleaved PARP positive nuclei fraction relative to DMSO control; melanoma cells; higher = more apoptosis", "details": "library dose: low library concentration; 72 h", "units": {"cleaved PARP positive nuclei fraction": "%"}, "values": [{"smiles": "CS(=O)(=O)c1ccc(C(=O)Nc2ccc(Cl)c(-c3ccccn3)c2)c(Cl)c1", "note": "[vismodegib] + OCc1c[nH]c2ccccc12 [Indole-3-carbinol] (first compound 1 µM, partner dose 0.8 µM)", "cleaved PARP positive nuclei fraction": 73.9}, {"smiles": "COc1ccc(C2=N[C@@H](c3ccc(Cl)cc3)[C@@H](c3ccc(Cl)cc3)N2C(=O)N2CCNC(=O)C2)c(OC(C)C)c1", "note": "[Nutlin-3] + NC1(c2ccc(-c3nc4ccn5c(=O)[nH]nc5c4cc3-c3ccccc3)cc2)CCC1 [MK2206] (first compound 0.1 µM, partner dose 0.4 µM)", "cleaved PARP positive nuclei fraction": 87.2}, {"smiles": "COc1ccc(C2=N[C@@H](c3ccc(Cl)cc3)[C@@H](c3ccc(Cl)cc3)N2C(=O)N2CCNC(=O)C2)c(OC(C)C)c1", "note": "[Nutlin-3] + Clc1ccc(Nc2nnc(Cc3ccncc3)c3ccccc23)cc1 [vatalanib] (first compound 0.1 µM, partner dose 2 µM)", "cleaved PARP positive nuclei fraction": 228}, {"smiles": "Cn1sc(=O)n(Cc2ccccc2)c1=O", "note": "+ CN(c1ncccc1CNc1nc(Nc2ccc3c(c2)CC(=O)N3)ncc1C(F)(F)F)S(C)(=O)=O [PF562271] (first compound 0.4 µM, partner dose 0.08 µM)", "cleaved PARP positive nuclei fraction": 170}, {"smiles": "Cn1cnc2c(F)c(Nc3ccc(Br)cc3Cl)c(C(=O)NOCCO)cc21", "note": "[selumetinib] + CNC(=O)c1cc(Oc2ccc(NC(=O)Nc3ccc(Cl)c(C(F)(F)F)c3)cc2)ccn1 [sorafenib] (first compound 0.015 µM, partner dose 0.4 µM)", "cleaved PARP positive nuclei fraction": 78}]}]}
